Measured values as given in publication PMC11067983.
Results are given in words; binding and its absence hold for the method and conditions named. Binding seen in cells or lysates may run through a third protein. Some entries that bind do so weakly or less than the wild type.

By UniProt entry, the sequences of proteins in these tests, tags left out.
UniProt Q15648: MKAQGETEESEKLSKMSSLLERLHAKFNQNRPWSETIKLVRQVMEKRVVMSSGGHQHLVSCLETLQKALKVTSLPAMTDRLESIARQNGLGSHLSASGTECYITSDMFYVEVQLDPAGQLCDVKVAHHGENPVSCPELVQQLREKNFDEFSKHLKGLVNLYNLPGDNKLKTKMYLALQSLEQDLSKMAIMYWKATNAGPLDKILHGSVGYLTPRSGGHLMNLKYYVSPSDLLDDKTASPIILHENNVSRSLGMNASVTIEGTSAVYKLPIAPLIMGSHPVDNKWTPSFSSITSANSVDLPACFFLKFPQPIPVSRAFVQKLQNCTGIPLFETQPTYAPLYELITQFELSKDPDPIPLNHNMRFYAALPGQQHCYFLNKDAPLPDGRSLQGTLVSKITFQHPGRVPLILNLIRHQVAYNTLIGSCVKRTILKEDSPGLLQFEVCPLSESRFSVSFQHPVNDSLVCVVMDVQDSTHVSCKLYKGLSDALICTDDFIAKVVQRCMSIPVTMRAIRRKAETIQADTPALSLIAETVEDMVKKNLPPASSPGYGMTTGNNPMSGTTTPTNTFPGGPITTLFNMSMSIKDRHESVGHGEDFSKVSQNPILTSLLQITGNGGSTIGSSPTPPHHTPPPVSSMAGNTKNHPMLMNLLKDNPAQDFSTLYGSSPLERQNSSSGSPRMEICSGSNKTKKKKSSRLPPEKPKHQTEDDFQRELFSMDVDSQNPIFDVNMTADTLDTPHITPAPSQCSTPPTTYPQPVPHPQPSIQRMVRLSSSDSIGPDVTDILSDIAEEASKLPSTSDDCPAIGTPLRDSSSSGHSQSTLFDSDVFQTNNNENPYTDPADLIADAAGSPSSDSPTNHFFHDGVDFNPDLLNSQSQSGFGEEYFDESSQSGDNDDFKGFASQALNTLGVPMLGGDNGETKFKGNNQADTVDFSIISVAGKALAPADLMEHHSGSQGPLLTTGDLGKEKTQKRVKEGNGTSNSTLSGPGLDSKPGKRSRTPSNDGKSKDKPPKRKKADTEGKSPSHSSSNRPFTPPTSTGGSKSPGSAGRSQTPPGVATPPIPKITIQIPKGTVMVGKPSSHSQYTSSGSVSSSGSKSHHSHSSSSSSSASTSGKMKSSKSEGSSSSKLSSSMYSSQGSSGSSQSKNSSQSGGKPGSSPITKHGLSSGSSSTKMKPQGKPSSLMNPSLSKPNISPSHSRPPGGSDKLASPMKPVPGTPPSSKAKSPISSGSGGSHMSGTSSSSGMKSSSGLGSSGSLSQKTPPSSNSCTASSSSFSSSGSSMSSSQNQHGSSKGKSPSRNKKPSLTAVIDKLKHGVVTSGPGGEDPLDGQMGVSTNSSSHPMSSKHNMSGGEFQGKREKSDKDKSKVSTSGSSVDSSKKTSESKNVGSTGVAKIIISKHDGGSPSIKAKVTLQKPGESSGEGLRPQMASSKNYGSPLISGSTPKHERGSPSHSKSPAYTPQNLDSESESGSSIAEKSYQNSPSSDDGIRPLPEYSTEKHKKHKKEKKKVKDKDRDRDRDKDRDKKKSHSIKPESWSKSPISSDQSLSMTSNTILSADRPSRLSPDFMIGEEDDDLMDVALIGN
UniProt Q92560: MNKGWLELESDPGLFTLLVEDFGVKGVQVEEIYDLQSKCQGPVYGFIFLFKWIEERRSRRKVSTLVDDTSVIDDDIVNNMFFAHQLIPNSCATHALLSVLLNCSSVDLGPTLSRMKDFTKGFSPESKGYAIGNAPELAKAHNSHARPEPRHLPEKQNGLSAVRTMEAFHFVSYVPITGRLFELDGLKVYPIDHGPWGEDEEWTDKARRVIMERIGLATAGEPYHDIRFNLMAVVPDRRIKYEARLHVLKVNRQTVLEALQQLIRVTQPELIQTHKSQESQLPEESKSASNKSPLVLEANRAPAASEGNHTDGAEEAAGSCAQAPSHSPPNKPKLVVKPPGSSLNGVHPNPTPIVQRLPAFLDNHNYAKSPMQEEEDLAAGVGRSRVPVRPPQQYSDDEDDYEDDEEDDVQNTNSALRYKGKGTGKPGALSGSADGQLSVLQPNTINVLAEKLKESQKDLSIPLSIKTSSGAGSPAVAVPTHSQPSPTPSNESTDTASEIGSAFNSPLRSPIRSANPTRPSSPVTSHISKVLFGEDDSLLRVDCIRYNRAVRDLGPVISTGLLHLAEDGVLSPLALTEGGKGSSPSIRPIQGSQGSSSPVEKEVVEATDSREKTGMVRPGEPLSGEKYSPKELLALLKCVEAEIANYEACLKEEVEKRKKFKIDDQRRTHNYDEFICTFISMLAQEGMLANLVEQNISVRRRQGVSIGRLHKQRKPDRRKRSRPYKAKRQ

Molecular target: mediator of RNA polymerase II transcription subunit 1 (Med1) (human (endogenous in HEK 293T)) (UniProt Q15648)
Experiment: co-IP; 293T cells transfected with BAP1 or BAP1 C91A plasmids for 36 h; lysis buffer 50 mM Tris-HCl pH 7.5, 1 mM EDTA, 10% glycerol, 300 mM NaCl, 1% Triton-100; lysates incubated with anti-Med1 overnight at 4°C and protein A/G PLUS-Agarose for 2 h; immunoblot with anti-SRT or anti-BAP1

For “SRT-BAP1 wild type (BRCA1-associated protein 1) (from UniProt Q92560 1-729) (enzyme)”, the binding was “binds”.
